Measurements taken from article PMC7530387.
No constants are given. Whether binding was seen depends on the method and setting. In cells and extracts the contact can be indirect.

Chains of the proteins cited; added tags and fusions are not shown. Lines headed by an entry give the natural chain unless they say otherwise; changes in a name come on top.
UniProt P35232: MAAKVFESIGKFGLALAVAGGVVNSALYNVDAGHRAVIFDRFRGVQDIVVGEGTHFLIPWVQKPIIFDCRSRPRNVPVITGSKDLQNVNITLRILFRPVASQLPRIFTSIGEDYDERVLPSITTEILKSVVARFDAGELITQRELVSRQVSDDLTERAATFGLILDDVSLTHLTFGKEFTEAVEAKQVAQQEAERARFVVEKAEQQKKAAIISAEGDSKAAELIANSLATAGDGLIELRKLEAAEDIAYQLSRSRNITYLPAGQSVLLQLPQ
UniProt P54198: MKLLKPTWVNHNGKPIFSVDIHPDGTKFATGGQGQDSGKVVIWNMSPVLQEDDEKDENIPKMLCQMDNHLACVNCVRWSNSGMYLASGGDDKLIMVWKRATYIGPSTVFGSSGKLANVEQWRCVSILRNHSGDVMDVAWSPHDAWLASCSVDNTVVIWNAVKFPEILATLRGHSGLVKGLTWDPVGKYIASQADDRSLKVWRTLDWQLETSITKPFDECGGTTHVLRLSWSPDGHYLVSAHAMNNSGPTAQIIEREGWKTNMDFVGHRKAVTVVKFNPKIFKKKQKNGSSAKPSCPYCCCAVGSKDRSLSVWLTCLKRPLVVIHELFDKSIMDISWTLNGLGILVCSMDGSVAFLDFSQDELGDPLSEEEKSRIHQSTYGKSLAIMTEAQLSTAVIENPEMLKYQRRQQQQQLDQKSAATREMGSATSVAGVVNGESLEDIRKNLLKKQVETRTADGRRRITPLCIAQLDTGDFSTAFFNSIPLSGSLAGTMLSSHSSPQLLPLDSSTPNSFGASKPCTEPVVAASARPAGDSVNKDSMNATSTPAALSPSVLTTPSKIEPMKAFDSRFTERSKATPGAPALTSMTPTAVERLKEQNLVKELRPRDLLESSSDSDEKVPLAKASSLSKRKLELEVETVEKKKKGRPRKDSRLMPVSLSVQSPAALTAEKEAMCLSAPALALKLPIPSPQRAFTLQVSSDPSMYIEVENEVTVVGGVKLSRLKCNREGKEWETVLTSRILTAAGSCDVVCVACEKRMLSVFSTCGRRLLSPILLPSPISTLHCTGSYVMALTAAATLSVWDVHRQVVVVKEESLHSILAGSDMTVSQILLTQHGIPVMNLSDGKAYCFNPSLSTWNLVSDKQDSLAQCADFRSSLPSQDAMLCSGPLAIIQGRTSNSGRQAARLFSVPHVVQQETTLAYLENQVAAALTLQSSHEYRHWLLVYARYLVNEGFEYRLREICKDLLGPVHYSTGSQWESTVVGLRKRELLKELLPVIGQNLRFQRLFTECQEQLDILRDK

Target: PHB domain-delete-linker (PHB-D-linker) (UniProt P35232)
Test: co-IP; Flag-tagged PHB or PHB fragments and HA-HIRA exogenously expressed in HEK 293T cells; IP with M2 beads, western blot; Co-IP buffer 50 mM Tris pH 7.4, 100 mM NaCl, 5 mM EDTA, 0.1% NP40

With “HA-tagged HIRA (histone regulator A) (from UniProt P54198 1-1017)” the binding was “no binding”.
